Residue numbers refer to the chain shown, from its start. No constants are given. Whether binding was seen depends on the method and setting.
B1: steroid-binding avidin mutant sbAvd-1 (designed binder)
chain: ARKCSLTGKWTNRMNHNMTIGAVNSRGEFTGTYITAVTATSNEIKESPLHGTQNTINKRTQPTFGFTVNWKFSESTTVFTGQCFIDRNGKEVLKTMWLLRSSVNDIGDDWKATRVGINIFTRLRTQKE
notes: chicken avidin (Avd) with the loop between beta-strands 1 and 2 (N12, D13, L14, G15, S16) changed to N12, R13, M14, N15, H16; selected by phage display from the Avd L1,2 library; source: E. coli BL21-AI, pET101/D, secreted with the OmpA signal of Bordetella avium, purified (Ni-NTA)
B2: steroid-binding avidin mutant sbAvd-2 (designed binder)
chain: B1 chain with T35A, A36T, T38N
notes: selected by phage display from the sbAvd-1 L3,4 library; source: E. coli BL21-AI, pET101/D, secreted with the OmpA signal of Bordetella avium, purified (Ni-NTA)

Sequences of proteins named here, by UniProt entry; tags and fusion partners are left off. Residues count along the entry.
UniProt P02768, residues 25-609: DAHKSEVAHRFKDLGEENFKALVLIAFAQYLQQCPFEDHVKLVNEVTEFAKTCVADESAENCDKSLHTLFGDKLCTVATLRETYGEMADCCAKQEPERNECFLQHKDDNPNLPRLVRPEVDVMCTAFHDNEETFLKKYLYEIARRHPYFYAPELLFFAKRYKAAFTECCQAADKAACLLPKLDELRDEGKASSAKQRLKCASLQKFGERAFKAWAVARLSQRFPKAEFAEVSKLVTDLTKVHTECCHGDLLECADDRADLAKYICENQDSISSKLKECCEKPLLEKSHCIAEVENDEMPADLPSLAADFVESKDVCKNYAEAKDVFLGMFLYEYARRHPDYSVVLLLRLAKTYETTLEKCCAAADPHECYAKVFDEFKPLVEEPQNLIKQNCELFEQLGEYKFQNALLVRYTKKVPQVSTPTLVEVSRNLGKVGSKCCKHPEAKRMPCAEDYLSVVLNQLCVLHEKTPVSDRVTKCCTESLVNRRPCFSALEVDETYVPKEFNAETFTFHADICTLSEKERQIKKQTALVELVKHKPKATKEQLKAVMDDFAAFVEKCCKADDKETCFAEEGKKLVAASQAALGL
UniProt P02769, residues 25-607: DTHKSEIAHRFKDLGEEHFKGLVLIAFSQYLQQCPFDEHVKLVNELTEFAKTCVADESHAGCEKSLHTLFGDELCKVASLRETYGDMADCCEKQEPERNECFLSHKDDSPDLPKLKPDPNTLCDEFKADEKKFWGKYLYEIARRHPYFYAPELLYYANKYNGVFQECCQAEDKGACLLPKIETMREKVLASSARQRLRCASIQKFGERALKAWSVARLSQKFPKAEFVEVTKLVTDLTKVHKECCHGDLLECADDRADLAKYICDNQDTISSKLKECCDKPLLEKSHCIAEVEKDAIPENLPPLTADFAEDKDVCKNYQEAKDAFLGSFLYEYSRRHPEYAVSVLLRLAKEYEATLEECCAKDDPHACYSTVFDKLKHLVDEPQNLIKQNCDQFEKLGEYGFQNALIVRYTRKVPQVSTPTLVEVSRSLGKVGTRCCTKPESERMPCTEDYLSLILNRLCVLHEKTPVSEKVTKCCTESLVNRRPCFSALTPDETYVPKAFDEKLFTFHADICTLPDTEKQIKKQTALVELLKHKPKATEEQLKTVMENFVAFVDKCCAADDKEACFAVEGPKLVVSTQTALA

How the values were obtained:
[1] = biological target: human serum albumin (human) (UniProt P02768); experiment: ELISA; microplate assay; MaxiSorp wells coated with 500 ng carrier protein (HSA or BSA) in PBS, blocked with 0.5% BSA-PBS; Avd proteins 0.9 μg/ml in 20 mM sodium phosphate pH 7.4, 1 M NaCl, 20 mM imidazole, 1 h; bound Avd detected by polyclonal rabbit anti-avidin IgG; both purified
[2] = biological target: bovine serum albumin (bovine) (UniProt P02769); experiment: as above

| Molecule | binding [1] | binding [2] |
| --- | --- | --- |
| steroid-binding avidin mutant sbAvd-2 (from UniProt P02701 25-152) (designed binder) | no binding (tested: 0.9 μg/ml) | – |
| steroid-binding avidin mutant sbAvd-1 (from UniProt P02701 25-152) (designed binder) | no binding (tested: 0.9 μg/ml) | – |
| B1 | – | no binding (tested: 0.9 μg/ml) |
| B2 | – | no binding (tested: 0.9 μg/ml) |

— publication PMC3201017, “Modification of the loops in the ligand-binding site turns avidin into a steroid-binding protein” (BMC Biotechnology, 2011)
